{"source": "paper PMC4930625", "binders": {"B1": {"name": "FIV Vif-V5 (Vif of FIV-34TF10, domestic cat FIV, codon-optimized gene) (protein, UniProt P16089 1-251)", "chain": "MSEEDWQVSRRLFAVLQGGVNSAMLYISRLPPDEREKYKKDFKKRLFDTETGFIKRLRKAEGIKWSFHTRDYYIGYVREMVAGSTTSLSLRMYIYISNPLWHSQYRPGLKNFNKEWPFVNMWIKTGFMWDDIEKQNICIGGEVSPGWGPGMVGIAIKAFSCGERKIEATPVMIIRGEIDPKKWCGDCWNLMCLRNSPPKTLQRLAMLACGVPAKKWRGCCNQRFVSPYRTPADLEVIQSKPSWNLLWSGEL"}}, "key": {"[1]": {"molecular_target": "GST-FcaA3Z3-HA (domestic cat (Felis catus))", "assay": "pull-down; GST, GST-FcaA3Z2-HA or GST-FcaA3Z3-HA on glutathione Sepharose beads, incubated overnight at 4 °C with lysate of HEK293T cells expressing FIV Vif-V5; mild lysis buffer (50 mM Tris pH 8, 10 % glycerol, 0.8 % NP-40, 150 mM NaCl); eluted with 25 mM reduced glutathione; immunoblot anti-V5 and anti-HA; only the target purified"}, "[2]": {"molecular_target": "GST-FcaA3Z2-HA (domestic cat (Felis catus))", "assay": "pull-down; GST, GST-FcaA3Z2-HA or GST-FcaA3Z3-HA on glutathione Sepharose beads, incubated overnight at 4 °C with lysate of HEK293T cells expressing FIV Vif-V5; mild lysis buffer (50 mM Tris pH 8, 10 % glycerol, 0.8 % NP-40, 150 mM NaCl); eluted with 25 mM reduced glutathione; immunoblot anti-V5 and anti-HA; only the target purified"}}, "note": "No constants are given. Whether binding was seen depends on the method and setting. Binding seen in cells or lysates may run through a third protein. A result given as binding can be weak or reduced; the word gives no strength. Tags and fused reporters may be left off the sequences shown."}
{"binder": "B1", "values": [{"measurement": "binding", "setting": "[1]", "value": "binds"}, {"measurement": "binding", "setting": "[2]", "value": "binds"}]}
